Some values come without a unit; they compare only within their column.
Assay: Emission and excitation spectra of purified LHGFR with or without 100 μM L-2-HG
Assay type: binding

`O=C(O)CC[C@H](O)C(=O)O` [L-2-HG, L-2-Hydroxyglutarate] gave a fluorescence intensity (Suppl. Fig. 4a emission spectrum, 452 nm) of 15600, a fluorescence intensity (Suppl. Fig. 4a emission spectrum, 454 nm) of 15800 and a fluorescence intensity (Suppl. Fig. 4a emission spectrum, 456 nm) of 17000. It also gave a fluorescence intensity (Suppl. Fig. 4a emission spectrum, 458 nm) of 11600, a fluorescence intensity (Suppl. Fig. 4a emission spectrum, 460 nm) of 24600 and a fluorescence intensity (Suppl. Fig. 4a emission spectrum, 462 nm) of 33200. The fluorescence intensity (Suppl. Fig. 4a emission spectrum, 464 nm) was 55000, the fluorescence intensity (Suppl. Fig. 4a emission spectrum, 466 nm) was 69800 and the fluorescence intensity (Suppl. Fig. 4a emission spectrum, 468 nm) was 87800. It also gave a fluorescence intensity (Suppl. Fig. 4a emission spectrum, 470 nm) of 142600, a fluorescence intensity (Suppl. Fig. 4a emission spectrum, 472 nm) of 193600 and a fluorescence intensity (Suppl. Fig. 4a emission spectrum, 474 nm) of 266800. It also gave a fluorescence intensity (Suppl. Fig. 4a emission spectrum, 476 nm) of 381200, a fluorescence intensity (Suppl. Fig. 4a emission spectrum, 478 nm) of 503400 and a fluorescence intensity (Suppl. Fig. 4a emission spectrum, 480 nm) of 605800. It also gave a fluorescence intensity (Suppl. Fig. 4a emission spectrum, 482 nm) of 741000, a fluorescence intensity (Suppl. Fig. 4a emission spectrum, 484 nm) of 892600 and a fluorescence intensity (Suppl. Fig. 4a emission spectrum, 486 nm) of 1.04E+06. It also gave a fluorescence intensity (Suppl. Fig. 4a emission spectrum, 488 nm) of 1.15E+06, a fluorescence intensity (Suppl. Fig. 4a emission spectrum, 490 nm) of 1.26E+06 and a fluorescence intensity (Suppl. Fig. 4a emission spectrum, 492 nm) of 1.28E+06. The fluorescence intensity (Suppl. Fig. 4a emission spectrum, 494 nm) was 1.32E+06, the fluorescence intensity (Suppl. Fig. 4a emission spectrum, 496 nm) was 1.31E+06 and the fluorescence intensity (Suppl. Fig. 4a emission spectrum, 498 nm) was 1.28E+06. For the same compound, the fluorescence intensity (Suppl. Fig. 4a emission spectrum, 500 nm) was 1.24E+06, the fluorescence intensity (Suppl. Fig. 4a emission spectrum, 502 nm) was 1.19E+06 and the fluorescence intensity (Suppl. Fig. 4a emission spectrum, 504 nm) was 1.18E+06. For the same compound, the fluorescence intensity (Suppl. Fig. 4a emission spectrum, 506 nm) was 1.13E+06, the fluorescence intensity (Suppl. Fig. 4a emission spectrum, 508 nm) was 1.10E+06 and the fluorescence intensity (Suppl. Fig. 4a emission spectrum, 510 nm) was 1.08E+06. It also gave a fluorescence intensity (Suppl. Fig. 4a emission spectrum, 512 nm) of 1.12E+06, a fluorescence intensity (Suppl. Fig. 4a emission spectrum, 514 nm) of 1.20E+06 and a fluorescence intensity (Suppl. Fig. 4a emission spectrum, 516 nm) of 1.33E+06. The fluorescence intensity (Suppl. Fig. 4a emission spectrum, 518 nm) was 1.54E+06, the fluorescence intensity (Suppl. Fig. 4a emission spectrum, 520 nm) was 1.75E+06 and the fluorescence intensity (Suppl. Fig. 4a emission spectrum, 522 nm) was 1.97E+06. For the same compound, the fluorescence intensity (Suppl. Fig. 4a emission spectrum, 524 nm) was 2.17E+06, the fluorescence intensity (Suppl. Fig. 4a emission spectrum, 526 nm) was 2.30E+06 and the fluorescence intensity (Suppl. Fig. 4a emission spectrum, 528 nm) was 2.34E+06. It also gave a fluorescence intensity (Suppl. Fig. 4a emission spectrum, 530 nm) of 2.34E+06, a fluorescence intensity (Suppl. Fig. 4a emission spectrum, 532 nm) of 2.23E+06 and a fluorescence intensity (Suppl. Fig. 4a emission spectrum, 534 nm) of 2.08E+06. It also gave a fluorescence intensity (Suppl. Fig. 4a emission spectrum, 536 nm) of 1.93E+06, a fluorescence intensity (Suppl. Fig. 4a emission spectrum, 538 nm) of 1.77E+06 and a fluorescence intensity (Suppl. Fig. 4a emission spectrum, 540 nm) of 1.60E+06. It also gave a fluorescence intensity (Suppl. Fig. 4a emission spectrum, 542 nm) of 1.42E+06, a fluorescence intensity (Suppl. Fig. 4a emission spectrum, 544 nm) of 1.32E+06 and a fluorescence intensity (Suppl. Fig. 4a emission spectrum, 546 nm) of 1.18E+06. The fluorescence intensity (Suppl. Fig. 4a emission spectrum, 548 nm) was 1.05E+06, the fluorescence intensity (Suppl. Fig. 4a emission spectrum, 550 nm) was 963000 and the fluorescence intensity (Suppl. Fig. 4a emission spectrum, 552 nm) was 855800. It also gave a fluorescence intensity (Suppl. Fig. 4a emission spectrum, 554 nm) of 790000, a fluorescence intensity (Suppl. Fig. 4a emission spectrum, 556 nm) of 741600 and a fluorescence intensity (Suppl. Fig. 4a emission spectrum, 558 nm) of 701600. It also gave a fluorescence intensity (Suppl. Fig. 4a emission spectrum, 560 nm) of 662800, a fluorescence intensity (Suppl. Fig. 4a emission spectrum, 562 nm) of 608600 and a fluorescence intensity (Suppl. Fig. 4a emission spectrum, 564 nm) of 592200. It also gave a fluorescence intensity (Suppl. Fig. 4a emission spectrum, 566 nm) of 540600, a fluorescence intensity (Suppl. Fig. 4a emission spectrum, 568 nm) of 508600 and a fluorescence intensity (Suppl. Fig. 4a emission spectrum, 570 nm) of 482000. It also gave a fluorescence intensity (Suppl. Fig. 4a emission spectrum, 572 nm) of 438800, a fluorescence intensity (Suppl. Fig. 4a emission spectrum, 574 nm) of 409200 and a fluorescence intensity (Suppl. Fig. 4a emission spectrum, 576 nm) of 378200. It also gave a fluorescence intensity (Suppl. Fig. 4a emission spectrum, 578 nm) of 360800, a fluorescence intensity (Suppl. Fig. 4a emission spectrum, 580 nm) of 318800 and a fluorescence intensity (Suppl. Fig. 4b excitation spectrum, 380 nm) of 65901. The fluorescence intensity (Suppl. Fig. 4b excitation spectrum, 382 nm) was 65894, the fluorescence intensity (Suppl. Fig. 4b excitation spectrum, 384 nm) was 67958 and the fluorescence intensity (Suppl. Fig. 4b excitation spectrum, 386 nm) was 75896. For the same compound, the fluorescence intensity (Suppl. Fig. 4b excitation spectrum, 388 nm) was 85380, the fluorescence intensity (Suppl. Fig. 4b excitation spectrum, 390 nm) was 93067 and the fluorescence intensity (Suppl. Fig. 4b excitation spectrum, 392 nm) was 99606. It also gave a fluorescence intensity (Suppl. Fig. 4b excitation spectrum, 394 nm) of 104178, a fluorescence intensity (Suppl. Fig. 4b excitation spectrum, 396 nm) of 107353 and a fluorescence intensity (Suppl. Fig. 4b excitation spectrum, 398 nm) of 114435. The fluorescence intensity (Suppl. Fig. 4b excitation spectrum, 400 nm) was 121811, the fluorescence intensity (Suppl. Fig. 4b excitation spectrum, 402 nm) was 130492 and the fluorescence intensity (Suppl. Fig. 4b excitation spectrum, 404 nm) was 142193. For the same compound, the fluorescence intensity (Suppl. Fig. 4b excitation spectrum, 406 nm) was 154388, the fluorescence intensity (Suppl. Fig. 4b excitation spectrum, 408 nm) was 173124 and the fluorescence intensity (Suppl. Fig. 4b excitation spectrum, 410 nm) was 213570. For the same compound, the fluorescence intensity (Suppl. Fig. 4b excitation spectrum, 412 nm) was 250409, the fluorescence intensity (Suppl. Fig. 4b excitation spectrum, 414 nm) was 279233 and the fluorescence intensity (Suppl. Fig. 4b excitation spectrum, 416 nm) was 296662. For the same compound, the fluorescence intensity (Suppl. Fig. 4b excitation spectrum, 418 nm) was 320954, the fluorescence intensity (Suppl. Fig. 4b excitation spectrum, 420 nm) was 335336 and the fluorescence intensity (Suppl. Fig. 4b excitation spectrum, 422 nm) was 353722. The fluorescence intensity (Suppl. Fig. 4b excitation spectrum, 424 nm) was 371885, the fluorescence intensity (Suppl. Fig. 4b excitation spectrum, 426 nm) was 387852 and the fluorescence intensity (Suppl. Fig. 4b excitation spectrum, 428 nm) was 405888. The fluorescence intensity (Suppl. Fig. 4b excitation spectrum, 430 nm) was 434241, the fluorescence intensity (Suppl. Fig. 4b excitation spectrum, 432 nm) was 475544 and the fluorescence intensity (Suppl. Fig. 4b excitation spectrum, 434 nm) was 547867. It also gave a fluorescence intensity (Suppl. Fig. 4b excitation spectrum, 436 nm) of 642665, a fluorescence intensity (Suppl. Fig. 4b excitation spectrum, 438 nm) of 687870 and a fluorescence intensity (Suppl. Fig. 4b excitation spectrum, 440 nm) of 722951. The fluorescence intensity (Suppl. Fig. 4b excitation spectrum, 442 nm) was 752297, the fluorescence intensity (Suppl. Fig. 4b excitation spectrum, 444 nm) was 780632 and the fluorescence intensity (Suppl. Fig. 4b excitation spectrum, 446 nm) was 813150. The fluorescence intensity (Suppl. Fig. 4b excitation spectrum, 448 nm) was 840940, the fluorescence intensity (Suppl. Fig. 4b excitation spectrum, 450 nm) was 878660 and the fluorescence intensity (Suppl. Fig. 4b excitation spectrum, 452 nm) was 909752. For the same compound, the fluorescence intensity (Suppl. Fig. 4b excitation spectrum, 454 nm) was 935396, the fluorescence intensity (Suppl. Fig. 4b excitation spectrum, 456 nm) was 1.00E+06 and the fluorescence intensity (Suppl. Fig. 4b excitation spectrum, 458 nm) was 1.08E+06. For the same compound, the fluorescence intensity (Suppl. Fig. 4b excitation spectrum, 460 nm) was 1.16E+06 and the fluorescence intensity (Suppl. Fig. 4b excitation spectrum, 462 nm) was 1.20E+06.

From publication PMC8206213, “An L-2-hydroxyglutarate biosensor based on specific transcriptional regulator LhgR” (Nature Communications, 2021)
